# From PubChem BioAssay AID248 (DTP/NCI, 2004)
# The list shows only some results of the screen, not a fair sample: it gathers tests that were run many times, whatever their T/C, doses with no T/C, and many T/C values between a quarter and a half above the control. Further doses and runs are listed elsewhere. T/C is the treated group as % of the vehicle group. Some doses have a count of surviving animals in place of a T/C: the source holds a T/C of zero for them, seemingly a mark for toxic or unscored doses. Some survivor counts are full or nearly so, which does not show that the dose was tolerated: the source hardly ever lists a survival T/C far under the control, and the zero likely stands for such cases as well. Counts of survivors are from the toxicity check (mostly the fifth day) where no day follows; animals may have died later. Schedule codes are those of the source, read here as Q, the interval in days (D) or hours (H), X, the number of doses. Some entries hold several experiments; the results are listed from low to high. Some schedules carry Z or #; the key to these is not given. Where survival is the endpoint, this PubChem deposit counts one and a half times the control or more as active, and values a quarter to a half above the control carry no call in these data; other NCI protocols may use other cut-offs. Marks such as (2×) give the number of equal values in this list.
# Tested on: L1210 leukemia ip in BDF1 mice, survival T/C
# Assay: NCI In Vivo Anticancer Drug Screen. Data for tumor model L1210 Leukemia (intraperitoneal) in B6D2F1 (BDF1) mice
# Details: T/C endpoint: mean survival time, higher T/C = longer survival
# [1] = dose: 200.0 mg/kg/injection, schedule: Q04DX003 (ip), vehicle: saline
# [2] = dose: 400.0 mg/kg/injection, schedule: Q04DX003 (ip), vehicle: saline
# [3] = dose: 400.0 mg/kg/injection, schedule: Q04DX003 (ip), vehicle: Klucel (hydroxypropylcellulose) (HPC)
# [4] = dose: 50.0 mg/kg/injection, schedule: Q04DX003 (ip), vehicle: saline
# [5] = dose: 50.0 mg/kg/injection, schedule: Q01DX009 (ip), vehicle: saline with Tween-80
# [6] = dose: 100.0 mg/kg/injection, schedule: Q01DX009 (ip), vehicle: saline with Tween-80
# [7] = dose: 200.0 mg/kg/injection, schedule: Q01DX009 (ip), vehicle: saline with Tween-80
structure (smiles),measurement,setting,value
CNC(=S)n1ncnc1N,survivor count,"dose: 150.0 mg/kg/injection, schedule: Q01DX009 (ip), vehicle: saline",1 of 6
same,survivor count,[1],0 of 6
same,survivor count,"dose: 225.0 mg/kg/injection, schedule: Q01DX009 (ip), vehicle: saline",0 of 6
same,survivor count,"dose: 335.0 mg/kg/injection, schedule: Q01DX009 (ip), vehicle: saline",0 of 6
same,survivor count,[2],0 of 6
NC1CCC(CC23CC4CC(CC(C4)C2)C3)CC1 (stereo not given),survivor count,"dose: 200.0 mg/kg/injection, schedule: Q04DX003 (ip), vehicle: Klucel (hydroxypropylcellulose) (HPC)",3 of 6
same,survivor count,[3],0 of 6
O=S(=O)(C=C(N1CCCCC1)N1CCCCC1)Cc1ccccc1,survivor count,[4],3 of 6
same,survivor count,"dose: 55.0 mg/kg/injection, schedule: Q01DX009 (ip), vehicle: acetone",3 of 6
same,survivor count,"dose: 80.0 mg/kg/injection, schedule: Q01DX009 (ip), vehicle: acetone",0 of 6
same,survivor count,"dose: 100.0 mg/kg/injection, schedule: Q01DX001 (ip), vehicle: acetone",0 of 6
same,survivor count,"dose: 200.0 mg/kg/injection, schedule: Q01DX001 (ip), vehicle: acetone",0 of 6
same,survivor count,"dose: 400.0 mg/kg/injection, schedule: Q01DX001 (ip), vehicle: acetone",0 of 6
C[n+]1c2cc(N)ccc2cc2ccc(N)cc21,T/C,"dose: 8.0 mg/kg/injection, schedule: Q01DX009 (ip), vehicle: saline",126 and 130 % of control
same,T/C,"dose: 12.0 mg/kg/injection, schedule: Q01DX009 (ip), vehicle: saline",128 % of control
same,T/C,"dose: 12.5 mg/kg/injection, schedule: Q01DX009 (ip), vehicle: saline",130 % of control
same,survivor count,"dose: 18.0 mg/kg/injection, schedule: Q01DX009 (ip), vehicle: saline",6 of 6
same,survivor count,"dose: 25.0 mg/kg/injection, schedule: Q01DX009 (ip), vehicle: saline",0 of 6
same,survivor count,"dose: 25.0 mg/kg/injection, schedule: Q04DX003 (ip), vehicle: saline",5 of 6
same,survivor count,[4],1 of 6
same,survivor count,"dose: 100.0 mg/kg/injection, schedule: Q04DX003 (ip), vehicle: saline",0 of 6
same,survivor count,[1],0 of 6
same,survivor count,[2],0 of 6
Oc1ccc(N=Cc2c(O)ccc3ccccc23)cc1,survivor count,"dose: 100.0 mg/kg/injection, schedule: Q01DX001 (ip), vehicle: other",6 of 6
O=C(O)c1cccc(C(=O)O)[n+]1[O-],survivor count,"dose: 200.0 mg/kg/injection, schedule: Q04DX002 (ip), vehicle: Klucel (hydroxypropylcellulose) (HPC)",2 of 3
CC[N+]1(C)CCOCC1,survivor count,"dose: 300.0 mg/kg/injection, schedule: Q01DX001 (ip), vehicle: saline",3 of 6
O=C(O)c1ccc(C(=O)c2ccc([N+](=O)[O-])cc2)cc1,survivor count,"dose: 100.0 mg/kg/injection, schedule: Q01DX009 (ip), vehicle: carboxymethylcellulose (CMC)",3 of 3
same,survivor count,"dose: 200.0 mg/kg/injection, schedule: Q01DX009 (ip), vehicle: carboxymethylcellulose (CMC)",3 of 3
COc1ccc(/C=N/NC(=O)CNC(=O)c2ccc(Cl)c(Cl)c2)cc1,survivor count,"dose: 25.0 mg/kg/injection, schedule: Q01DX009 (ip), vehicle: saline with Tween-80",3 of 3
same,survivor count,[5],2 of 3 and 3 of 3
same,survivor count,[6],3 of 3
same,survivor count,[7],3 of 3
O=C(CBr)CC(=O)Nc1ccccc1,survivor count,[6],4 of 6
CS(=O)(=O)CCN(N=O)C(=N)N[N+](=O)[O-],T/C,"dose: 17.7 mg/kg/injection, schedule: Q01DX Z (ip), vehicle: carboxymethylcellulose (CMC)",135 % of control
same,T/C,"dose: 26.6 mg/kg/injection, schedule: Q01DX Z (ip), vehicle: carboxymethylcellulose (CMC)",147 % of control
same,T/C,"dose: 30.0 mg/kg/injection, schedule: Q01DX Z (ip), vehicle: methylcellulose (MC)",134 % of control
same,T/C,"dose: 60.0 mg/kg/injection, schedule: Q01DX Z (ip), vehicle: methylcellulose (MC)",132 % of control
same,T/C,"dose: 90.0 mg/kg/injection, schedule: Q01DX Z (ip), vehicle: carboxymethylcellulose (CMC)",137 % of control
same,T/C,"dose: 90.0 mg/kg/injection, schedule: Q01DX Z (ip), vehicle: methylcellulose (MC)",127 % of control
same,survivor count,"dose: 135.0 mg/kg/injection, schedule: Q01DX Z (ip), vehicle: carboxymethylcellulose (CMC)",2 of 6
CSc1ccnc2n[nH]nc12,survivor count,"dose: 400.0 mg/kg/injection, schedule: Q01DX001 (ip), vehicle: Klucel (hydroxypropylcellulose) (HPC)",1 of 6
same,survivor count,[3],1 of 6
CC(C)Nc1ccc(Nc2ccc(NC(C)C)cc2)cc1,survivor count,"dose: 25.0 mg/kg/injection, schedule: Q04DX003 (ip), vehicle: alcohol",3 of 6
same,survivor count,"dose: 28.0 mg/kg/injection, schedule: Q01DX009 (ip), vehicle: alcohol",2 of 6
same,survivor count,"dose: 40.0 mg/kg/injection, schedule: Q01DX009 (ip), vehicle: alcohol",1 of 6
same,survivor count,"dose: 50.0 mg/kg/injection, schedule: Q04DX003 (ip), vehicle: alcohol",0 of 6
same,survivor count,"dose: 100.0 mg/kg/injection, schedule: Q04DX003 (ip), vehicle: alcohol",0 of 6
same,survivor count,"dose: 200.0 mg/kg/injection, schedule: Q04DX003 (ip), vehicle: alcohol",0 of 6
same,survivor count,"dose: 400.0 mg/kg/injection, schedule: Q04DX003 (ip), vehicle: alcohol",0 of 6
CCN(CC)CC(=O)NCC(CCCN(C)C)(CCCN(C)C)c1cccc2ccccc12,survivor count,"dose: 100.0 mg/kg/injection, schedule: Q04DX002 (ip), vehicle: saline",3 of 3
CCCN1CCC(C(=O)CC)(c2cccc(O)c2)CC1,survivor count,"dose: 400.0 mg/kg/injection, schedule: Q04DX002 (ip), vehicle: Klucel (hydroxypropylcellulose) (HPC)",0 of 3
CC(C)(C)c1cc(C#N)cc(Br)c1O,survivor count,"dose: 200.0 mg/kg/injection, schedule: Q04DX002 (ip), vehicle: saline with Tween-80",2 of 3
same,survivor count,"dose: 400.0 mg/kg/injection, schedule: Q04DX002 (ip), vehicle: saline with Tween-80",0 of 3
Cc1ccc(NC(=S)NC(=O)/C=C/c2ccccc2)cc1Cl,survivor count,[5],6 of 6
same,T/C,[6],"91, 92, 93, 97 % of control (2×)"
same,survivor count,"dose: 100.0 mg/kg/injection, schedule: Q04DX002 (ip), vehicle: saline with Tween-80",6 of 6
same,T/C,[7],"90, 95, 103 % of control"
same,survivor count,[7],4 of 6
same,survivor count,"dose: 400.0 mg/kg/injection, schedule: Q01DX001 (ip), vehicle: saline with Tween-80",6 of 6
same,T/C,"dose: 400.0 mg/kg/injection, schedule: Q01DX009 (ip), vehicle: saline with Tween-80","90, 92 (2×), 98 % of control"
